From paper PMC4716144

Amino acid sequences for entries named in this document (tags omitted).
UniProt Q8VHK1: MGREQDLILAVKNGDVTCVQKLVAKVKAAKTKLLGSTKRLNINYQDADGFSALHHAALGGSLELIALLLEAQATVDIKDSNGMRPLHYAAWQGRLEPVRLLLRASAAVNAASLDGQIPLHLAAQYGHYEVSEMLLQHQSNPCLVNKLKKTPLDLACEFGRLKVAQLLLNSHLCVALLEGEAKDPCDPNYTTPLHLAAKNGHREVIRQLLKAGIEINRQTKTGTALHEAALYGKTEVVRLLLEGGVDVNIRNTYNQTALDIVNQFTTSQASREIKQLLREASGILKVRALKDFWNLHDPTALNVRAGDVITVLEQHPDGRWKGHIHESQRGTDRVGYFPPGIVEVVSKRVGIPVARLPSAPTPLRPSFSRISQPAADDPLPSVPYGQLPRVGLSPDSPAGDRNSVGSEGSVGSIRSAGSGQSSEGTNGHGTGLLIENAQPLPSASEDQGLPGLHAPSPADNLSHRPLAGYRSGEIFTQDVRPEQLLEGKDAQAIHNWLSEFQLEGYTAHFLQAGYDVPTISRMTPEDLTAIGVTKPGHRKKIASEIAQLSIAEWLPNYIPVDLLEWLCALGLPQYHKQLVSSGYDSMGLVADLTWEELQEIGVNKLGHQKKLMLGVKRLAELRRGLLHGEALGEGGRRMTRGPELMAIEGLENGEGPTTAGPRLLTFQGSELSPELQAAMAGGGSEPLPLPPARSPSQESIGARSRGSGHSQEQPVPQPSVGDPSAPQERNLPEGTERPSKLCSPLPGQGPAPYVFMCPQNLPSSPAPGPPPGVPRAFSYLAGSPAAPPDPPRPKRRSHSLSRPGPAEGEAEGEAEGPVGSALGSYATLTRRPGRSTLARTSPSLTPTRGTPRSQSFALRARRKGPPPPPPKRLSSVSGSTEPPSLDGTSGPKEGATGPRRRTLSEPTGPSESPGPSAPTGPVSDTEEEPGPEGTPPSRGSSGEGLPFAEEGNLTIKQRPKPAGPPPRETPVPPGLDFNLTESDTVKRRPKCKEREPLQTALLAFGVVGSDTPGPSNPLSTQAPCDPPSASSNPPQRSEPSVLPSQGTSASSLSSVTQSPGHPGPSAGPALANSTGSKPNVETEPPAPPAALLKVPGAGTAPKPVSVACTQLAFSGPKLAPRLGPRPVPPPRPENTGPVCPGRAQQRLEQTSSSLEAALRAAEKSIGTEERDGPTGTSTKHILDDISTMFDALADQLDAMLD
UniProt Q62167: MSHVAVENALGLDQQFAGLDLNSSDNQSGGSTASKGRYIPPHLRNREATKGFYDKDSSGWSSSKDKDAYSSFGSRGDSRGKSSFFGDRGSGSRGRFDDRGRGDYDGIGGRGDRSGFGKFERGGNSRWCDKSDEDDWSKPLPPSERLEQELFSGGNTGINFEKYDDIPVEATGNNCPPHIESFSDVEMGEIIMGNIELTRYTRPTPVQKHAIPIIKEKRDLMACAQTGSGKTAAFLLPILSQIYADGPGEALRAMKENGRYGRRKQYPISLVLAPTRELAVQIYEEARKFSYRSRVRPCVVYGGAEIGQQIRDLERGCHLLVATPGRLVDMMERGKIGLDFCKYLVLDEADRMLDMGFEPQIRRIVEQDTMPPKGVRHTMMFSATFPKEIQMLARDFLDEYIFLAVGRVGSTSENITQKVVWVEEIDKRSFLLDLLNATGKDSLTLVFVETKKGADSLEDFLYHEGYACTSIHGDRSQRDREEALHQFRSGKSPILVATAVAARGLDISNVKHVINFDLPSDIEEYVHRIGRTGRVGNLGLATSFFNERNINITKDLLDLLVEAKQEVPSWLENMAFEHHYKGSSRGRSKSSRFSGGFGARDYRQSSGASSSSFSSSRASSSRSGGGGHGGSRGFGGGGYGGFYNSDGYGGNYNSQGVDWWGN
UniProt Q9QYR6: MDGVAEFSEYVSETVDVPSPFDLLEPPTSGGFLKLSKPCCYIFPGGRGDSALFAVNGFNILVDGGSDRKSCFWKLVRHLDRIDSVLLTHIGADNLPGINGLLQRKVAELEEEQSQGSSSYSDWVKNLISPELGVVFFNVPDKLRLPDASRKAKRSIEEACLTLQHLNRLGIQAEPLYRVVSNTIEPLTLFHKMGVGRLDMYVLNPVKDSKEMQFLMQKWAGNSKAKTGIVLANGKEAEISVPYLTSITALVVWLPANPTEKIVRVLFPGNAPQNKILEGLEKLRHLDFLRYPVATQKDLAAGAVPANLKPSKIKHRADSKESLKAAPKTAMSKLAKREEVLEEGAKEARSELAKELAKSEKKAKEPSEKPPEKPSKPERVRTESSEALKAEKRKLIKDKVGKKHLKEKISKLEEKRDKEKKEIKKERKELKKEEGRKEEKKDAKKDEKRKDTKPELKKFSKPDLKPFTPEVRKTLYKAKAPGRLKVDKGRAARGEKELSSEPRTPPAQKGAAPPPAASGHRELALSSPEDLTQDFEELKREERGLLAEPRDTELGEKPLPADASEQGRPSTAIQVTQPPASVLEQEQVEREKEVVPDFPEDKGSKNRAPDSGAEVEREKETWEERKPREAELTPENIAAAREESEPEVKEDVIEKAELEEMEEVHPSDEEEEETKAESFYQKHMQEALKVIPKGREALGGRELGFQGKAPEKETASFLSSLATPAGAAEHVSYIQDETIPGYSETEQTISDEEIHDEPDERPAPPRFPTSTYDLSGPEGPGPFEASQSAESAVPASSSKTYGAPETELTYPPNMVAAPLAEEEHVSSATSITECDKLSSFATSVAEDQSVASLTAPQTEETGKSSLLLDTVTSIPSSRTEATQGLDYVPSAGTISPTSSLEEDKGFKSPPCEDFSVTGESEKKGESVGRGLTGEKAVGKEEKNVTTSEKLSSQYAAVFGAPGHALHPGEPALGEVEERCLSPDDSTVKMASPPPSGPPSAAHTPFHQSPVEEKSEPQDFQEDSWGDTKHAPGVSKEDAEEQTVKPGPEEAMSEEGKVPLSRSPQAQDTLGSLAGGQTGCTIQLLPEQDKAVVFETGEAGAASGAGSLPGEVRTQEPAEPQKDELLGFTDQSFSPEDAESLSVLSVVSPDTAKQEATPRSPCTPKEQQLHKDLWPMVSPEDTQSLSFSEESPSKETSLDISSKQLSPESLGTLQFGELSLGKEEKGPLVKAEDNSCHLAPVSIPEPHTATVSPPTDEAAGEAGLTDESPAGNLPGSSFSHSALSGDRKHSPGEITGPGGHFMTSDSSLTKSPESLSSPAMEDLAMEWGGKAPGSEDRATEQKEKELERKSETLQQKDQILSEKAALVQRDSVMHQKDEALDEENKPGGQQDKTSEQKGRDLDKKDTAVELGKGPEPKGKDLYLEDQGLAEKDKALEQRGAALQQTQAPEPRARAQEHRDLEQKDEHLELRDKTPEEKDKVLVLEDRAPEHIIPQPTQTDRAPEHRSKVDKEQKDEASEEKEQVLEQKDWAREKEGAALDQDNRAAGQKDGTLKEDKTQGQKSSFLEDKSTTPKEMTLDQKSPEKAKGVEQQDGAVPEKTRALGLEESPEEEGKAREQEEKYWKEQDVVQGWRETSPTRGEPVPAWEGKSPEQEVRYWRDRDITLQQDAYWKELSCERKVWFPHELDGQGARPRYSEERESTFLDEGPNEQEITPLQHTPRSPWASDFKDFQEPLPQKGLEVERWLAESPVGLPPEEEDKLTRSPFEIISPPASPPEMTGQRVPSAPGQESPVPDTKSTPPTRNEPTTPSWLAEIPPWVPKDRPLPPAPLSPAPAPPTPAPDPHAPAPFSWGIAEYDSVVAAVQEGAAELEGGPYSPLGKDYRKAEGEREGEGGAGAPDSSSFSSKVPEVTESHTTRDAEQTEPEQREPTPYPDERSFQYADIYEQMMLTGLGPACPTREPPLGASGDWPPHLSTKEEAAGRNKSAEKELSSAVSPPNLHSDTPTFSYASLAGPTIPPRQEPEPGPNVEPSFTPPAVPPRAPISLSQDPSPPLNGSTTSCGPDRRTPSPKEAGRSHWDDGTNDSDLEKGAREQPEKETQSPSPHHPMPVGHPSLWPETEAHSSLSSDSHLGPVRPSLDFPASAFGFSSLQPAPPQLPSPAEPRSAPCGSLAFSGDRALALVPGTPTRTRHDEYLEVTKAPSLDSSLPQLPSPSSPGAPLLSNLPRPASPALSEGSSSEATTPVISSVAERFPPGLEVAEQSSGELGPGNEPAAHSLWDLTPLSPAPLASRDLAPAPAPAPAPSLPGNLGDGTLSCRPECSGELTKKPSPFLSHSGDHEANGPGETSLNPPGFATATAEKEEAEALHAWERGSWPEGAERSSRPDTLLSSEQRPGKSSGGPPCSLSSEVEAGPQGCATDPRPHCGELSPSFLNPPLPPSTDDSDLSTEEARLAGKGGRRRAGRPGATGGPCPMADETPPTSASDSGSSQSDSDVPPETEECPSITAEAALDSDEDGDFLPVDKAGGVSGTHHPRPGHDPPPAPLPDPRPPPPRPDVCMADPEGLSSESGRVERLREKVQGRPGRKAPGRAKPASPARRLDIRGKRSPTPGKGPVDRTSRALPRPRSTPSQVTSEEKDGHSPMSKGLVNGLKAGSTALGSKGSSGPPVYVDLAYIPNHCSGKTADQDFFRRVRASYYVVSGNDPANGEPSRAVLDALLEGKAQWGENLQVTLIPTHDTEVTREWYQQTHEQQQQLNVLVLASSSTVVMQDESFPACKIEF
UniProt P54729: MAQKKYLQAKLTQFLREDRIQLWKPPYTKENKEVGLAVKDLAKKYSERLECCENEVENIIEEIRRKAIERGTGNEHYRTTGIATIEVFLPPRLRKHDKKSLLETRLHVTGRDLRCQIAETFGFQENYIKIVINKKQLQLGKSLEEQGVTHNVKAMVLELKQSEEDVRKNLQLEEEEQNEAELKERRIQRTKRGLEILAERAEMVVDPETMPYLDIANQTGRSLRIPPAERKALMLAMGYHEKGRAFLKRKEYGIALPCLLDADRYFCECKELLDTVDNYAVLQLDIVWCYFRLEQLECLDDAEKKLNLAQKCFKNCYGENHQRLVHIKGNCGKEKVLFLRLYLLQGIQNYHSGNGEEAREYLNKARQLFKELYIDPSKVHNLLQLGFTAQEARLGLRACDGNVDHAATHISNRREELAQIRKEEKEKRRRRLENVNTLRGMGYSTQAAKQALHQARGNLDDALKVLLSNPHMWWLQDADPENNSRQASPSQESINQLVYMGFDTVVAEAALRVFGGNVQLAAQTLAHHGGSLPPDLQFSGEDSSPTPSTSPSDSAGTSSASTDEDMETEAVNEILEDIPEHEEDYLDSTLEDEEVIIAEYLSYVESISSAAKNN
UniProt P59048: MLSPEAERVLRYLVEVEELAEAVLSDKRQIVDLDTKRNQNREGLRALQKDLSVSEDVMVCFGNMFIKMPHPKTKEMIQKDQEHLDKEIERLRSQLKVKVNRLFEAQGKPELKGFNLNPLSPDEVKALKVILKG
UniProt Q8CG46: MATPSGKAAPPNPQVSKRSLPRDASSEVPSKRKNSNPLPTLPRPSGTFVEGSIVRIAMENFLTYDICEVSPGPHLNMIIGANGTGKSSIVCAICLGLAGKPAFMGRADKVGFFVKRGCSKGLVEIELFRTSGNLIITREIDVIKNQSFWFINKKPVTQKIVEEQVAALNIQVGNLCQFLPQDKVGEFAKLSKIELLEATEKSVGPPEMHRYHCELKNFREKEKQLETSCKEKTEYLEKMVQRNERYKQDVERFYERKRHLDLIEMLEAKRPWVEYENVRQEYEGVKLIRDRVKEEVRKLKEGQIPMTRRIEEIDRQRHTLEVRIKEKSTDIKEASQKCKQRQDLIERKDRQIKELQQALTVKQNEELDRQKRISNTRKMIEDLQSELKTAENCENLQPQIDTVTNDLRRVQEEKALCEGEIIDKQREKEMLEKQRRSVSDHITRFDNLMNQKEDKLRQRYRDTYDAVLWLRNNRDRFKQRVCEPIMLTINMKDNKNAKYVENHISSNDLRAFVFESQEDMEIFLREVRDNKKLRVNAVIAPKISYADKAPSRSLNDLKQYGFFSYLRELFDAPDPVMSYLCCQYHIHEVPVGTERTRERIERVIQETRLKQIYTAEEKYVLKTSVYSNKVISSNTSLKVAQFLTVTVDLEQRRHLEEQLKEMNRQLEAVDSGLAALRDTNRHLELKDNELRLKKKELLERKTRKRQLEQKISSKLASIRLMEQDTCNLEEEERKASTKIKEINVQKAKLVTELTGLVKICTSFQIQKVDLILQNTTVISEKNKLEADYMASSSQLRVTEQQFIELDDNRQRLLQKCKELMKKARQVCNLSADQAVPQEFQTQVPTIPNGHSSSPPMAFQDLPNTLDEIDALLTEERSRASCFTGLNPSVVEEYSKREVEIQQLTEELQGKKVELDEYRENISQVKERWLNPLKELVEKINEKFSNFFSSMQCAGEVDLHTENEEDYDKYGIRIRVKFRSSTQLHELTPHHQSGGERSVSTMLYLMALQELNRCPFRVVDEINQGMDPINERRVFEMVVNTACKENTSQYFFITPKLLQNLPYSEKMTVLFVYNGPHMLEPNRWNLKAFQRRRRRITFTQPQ

B1: F-box protein 24 (protein, UniProt Q9D417 1-589)
chain: MVKRSCPSCGLEAGSEKKERGNPISVQLFPPELVEHIVSFLPVKDLVALGQTCHYFHEVCDAEGVWRRICRRLSPRIRDQSSGARPWKRAAILNYTKGLYFQAFGGRRRCLSKSVAPMLAHGYRRFLPTKDHVFILDYVGTLFFLKNALVSSTLGQIQWKRACRYVVLCRGAKDFASDPRCDTVYRKYLYVLATREQPAVVGTTGSRACDCVEVYLQSSGQRVFKMTFHHSMSFKQIVLVGQETQRALLLLTEEGKIYSLVVNETQLDQPRSYTVQLALRKVSRCLPHLRVTCMASNQSSTLYITGGTLIPRKQVPKAAELRAPDPPDQGGVYFEVHTPGVYRDLFGTLQAFDPLDHQMPLALSLPAKVLFCALGYNHLGLVDEFGRIFMQGNNRYGQLGTGDKMDRGEPTQVHYLQRPIALWCGLNHSLVLSQTSDFSKELLGCGCGAGGRLPGWPKGSASFVKLHIKVPLCACSLCSTRECLYMLSSHDIEQCPVYRDLPASRVGGSPEPSQGAGAPQDPGGTAQACEEYLSQIHSCPTLQDRMEKMKEIVGWMPLMAAQKDFFWEALDMLQRAAGGAGPDTSTPES
B2: insulin receptor substrate 2 (protein, UniProt P81122 1-1321)
chain: MASAPLPGPPASAGGDGPNLNNNNNNNNHSVRKCGYLRKQKHGHKRFFVLRGPGTGGDEASAAGGSPPQPPRLEYYESEKKWRSKAGAPKRVIALDCCLNINKRADAKHKYLIALYTKDEYFAVAAENEQEQEGWYRALTDLVSEGRSGEGGSGTTGGSCSASLPGVLGGSAGAAGCDDNYGLVTPATAVYREVWQVNLKPKGLGQSKNLTGVYRLCLSARTIGFVKLNCEQPSVTLQLMNIRRCGHSDSFFFIEVGRSAVTGPGELWMQADDSVVAQNIHETILEAMKALKELFEFRPRSKSQSSGSSATHPISVPGARRHHHLVNLPPSQTGLVRRSRTDSLAATPPAAKCTSCRVRTASEGDGGAAGGAGTAGGRPMSVAGSPLSPGPVRAPLSRSHTLSAGCGGRPSKVTLAPAGGALQHSRSMSMPVAHSPPAATSPGSLSSSSGHGSGSYPLPPGSHPHLPHPLHHPQGQRPSSGSASASGSPSDPGFMSLDEYGSSPGDLRAFSSHRSNTPESIAETPPARDGSGGELYGYMSMDRPLSHCGRPYRRVSGDGAQDLDRGLRKRTYSLTTPARQRQVPQPSSASLDEYTLMRATFSGSSGRLCPSFPASSPKVAYNPYPEDYGDIEIGSHKSSSSNLGADDGYMPMTPGAALRSGGPNSCKSDDYMPMSPTSVSAPKQILQPRLAAALPPSGAAVPAPPSGVGRTFPVNGGGYKASSPAESSPEDSGYMRMWCGSKLSMENPDPKLLPNGDYLNMSPSEAGTAGTPPDFSAALRGGSEGLKGIPGHCYSSLPRSYKAPCSCSGDNDQYVLMSSPVGRILEEERLEPQATPGAGTFGAAGGSHTQPHHSAVPSSMRPSAIGGRPEGFLGQRCRAVRPTRLSLEGLQTLPSMQEYPLPTEPKSPGEYINIDFGEAGTRLSPPAPPLLASAASSSSLLSASSPASSLGSGTPGTSSDSRQRSPLSDYMNLDFSSPKSPKPSTRSGDTVGSMDGLLSPEASSPYPPLPPRPSTSPSSLQQPLPPAPGDLYRLPPASAATSQGPTAGSSMSSEPGDNGDYTEMAFGVAATPPQPIVAPPKPEGARVASPTSGLKRLSLMDQVSGVEAFLQVSQPPDPHRGAKVIRADPQGGRRRHSSETFSSTTTVTPVSPSFAHNSKRHNSASVENVSLRKSSEGSSTLGGGDEPPTSPGQAQPLVAVPPVPQARPWNPGQPGALIGCPGGSSSPMRRETSVGFQNGLNYIAIDVRGEQGSLAQSQPQPGDKNSWSRTRSLGGLLGTVGGSGASGVCGGPGTGALPSASTYASIDFLSHHLKEATVVKE
B3: fatty acid binding protein 2 (protein, UniProt P55050 1-132)
chain: MAFDGTWKVDRNENYEKFMEKMGINVMKRKLGAHDNLKLTITQDGNKFTVKESSNFRNIDVVFELGVNFPYSLADGTELTGAWTIEGNKLIGKFTRVDNGKELIAVREVSGNELIQTYTYEGVEAKRFFKKE
B4: signal sequence receptor delta (protein, UniProt Q62186 24-172)
chain: ACLEPQITPSYYTTSDAVISTETVFIVEISLTCKNRVQNMALYADVSGKQFPVTRGQDVGRYQVSWSLEHKSAHAGTYEVRFFDEESYSLLRKAQRNNEDVSIIPPLFTVSVDHRGTWNGPWVSTEVLAAVIGIVIYYLAFSAKSHIQA
B5: G protein-coupled receptor 101 (receptor, UniProt Q80T62 1-511)
chain: MPPSCTNSTQENNGSRVCLPLSKMPISVAHGIIRSVVLLVILGVAFLGNVVLGYVLHRKPNLLQVTNRFIFNLLVTDLLQVALVAPWVVSTAIPFFWPLNIHFCTALVSLTHLFAFASVNTIVVVSVDRYLTIIHPLSYPSKMTNRRSYILLYGTWIAAFLQSTPPLYGWGHATFDDRNAFCSMIWGASPAYTVVSVVSFLVIPLGVMIACYSVVFGAARRQQALLYKAKSHRLEVRVEDSVVHENEEGAKKRDEFQDKNEFQGQDGGGQAEAKGSSSMEESPMVAEGSSQKTGKGSLDFSAGIMEGKDSDEVSNGSMEGLEVITEFQASSAKADTGRIDANQCNIDVGEDDVEFGMDEIHFNDDVEAMRIPESSPPSRRNSTSDPPLPPCYECKAARVIFVIISTYVLSLGPYCFLAVLAVWVDIDTRVPQWVITIIIWLFFLQCCIHPYVYGYMHKSIKKEIQEVLKKLICKKSPPVEDSHPDLHETEAGTEGGIEGKAVPSHDSATSP
B6: eukaryotic translation initiation factor 2B (Eif2b2) (protein, UniProt Q99LD9 1-351)
chain: MPGAAAKGSELSERIEGFVETLKRGGGQRSSEDMARETLGLLRRLITDHHWNNAGDLMDLIRREGRRMTAAQPSETTVGNMVRRVLKIIREEYGRLHGRSDESDQQESLHKLLTSGGLSEDFSFHFAPLKANIIEAINELLVELEGTMENIAAQALEHIHSNEVIMTIGYSRTVEAFLKEAARKRKFHVIVAECAPFCQGHEMAVNLSKEGIETTVMTDAAIFAVMSRVNKVIIGTKTILANGSLRAVAGTHTLALAAKHHSTPLIVCAPMFKLSPQFPSEEDSFHKFVAPEEVLPFTEGDILEKVSVHCPVFDYVPPDLITLFISNIGGNAPSYIYRLMSELYHPDDHVL

Legend:
[1] = biological target: T1, G protein-coupled receptor kinase interacting protein 2 (mouse (endogenous in pancreas)) (UniProt Q9JLQ2); assay: affinity purification with mass spectrometry; anti-GIT2 immunoprecipitation (pre-immune IgG as negative control) from lysates of whole pancreas of WT or db/db mice, 1 mg/ml protein, 16 h at 4°C, protein A/G agarose, eluted with 4% CHAPS-8M urea, normalised for GIT2 content; nano LC-MS/MS, MASCOT
T1 sequence: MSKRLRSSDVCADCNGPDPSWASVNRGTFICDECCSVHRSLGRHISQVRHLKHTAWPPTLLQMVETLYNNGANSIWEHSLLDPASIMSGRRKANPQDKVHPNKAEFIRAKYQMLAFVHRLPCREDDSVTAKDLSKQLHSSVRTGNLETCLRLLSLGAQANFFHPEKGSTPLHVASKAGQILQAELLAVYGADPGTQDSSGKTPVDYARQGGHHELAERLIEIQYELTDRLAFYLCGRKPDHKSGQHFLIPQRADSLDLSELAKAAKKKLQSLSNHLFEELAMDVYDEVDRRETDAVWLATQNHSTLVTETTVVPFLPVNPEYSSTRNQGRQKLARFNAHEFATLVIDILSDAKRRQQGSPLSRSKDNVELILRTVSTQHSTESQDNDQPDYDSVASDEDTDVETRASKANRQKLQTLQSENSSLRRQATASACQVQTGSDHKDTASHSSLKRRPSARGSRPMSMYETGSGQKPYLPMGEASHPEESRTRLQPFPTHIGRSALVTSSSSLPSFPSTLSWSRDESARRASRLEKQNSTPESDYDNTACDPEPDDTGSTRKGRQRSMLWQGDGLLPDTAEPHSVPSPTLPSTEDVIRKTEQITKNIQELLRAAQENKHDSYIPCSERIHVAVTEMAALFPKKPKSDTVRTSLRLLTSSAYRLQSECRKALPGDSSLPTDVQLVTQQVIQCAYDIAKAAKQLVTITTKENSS

[2] = biological target: T1, G protein-coupled receptor kinase interacting protein 2 (mouse (endogenous in pancreas)); assay: affinity purification with mass spectrometry; as a1, the sample from pancreas of diabetic db/db mice alone (153 co-precipitating proteins), for the proteins that the paper calls lost with metabolic dysfunction

| Molecule | binding [1] | binding [2] |
| --- | --- | --- |
| CASK-interacting protein 2 (from UniProt Q8VHK1 1-1201) | binds | – |
| DEAD (Asp-Glu-Ala-Asp) box helicase 3, X-linked (from UniProt Q62167 1-662) (enzyme) | binds | no binding (only pancreas of diabetic db/db mice) |
| insulin receptor (from UniProt P15208 28-1372) | binds | no binding (only pancreas of diabetic db/db mice) |
| microtubule-associated protein 1 A (from UniProt Q9QYR6 1-2776) | binds | – |
| negative regulator of ubiquitin-like proteins 1 (from UniProt P54729 1-614) | binds | no binding (only pancreas of diabetic db/db mice) |
| p53 and DNA damage regulated 1 (from UniProt P59048 1-133) | binds | – |
| structural maintenance of chromosomes 5 (from UniProt Q8CG46 1-1101) | binds | no binding (only pancreas of diabetic db/db mice) |
| B1 | binds | – |
| B2 | binds | no binding (only pancreas of diabetic db/db mice) |
| B3 | binds | no binding (only pancreas of diabetic db/db mice) |
| B4 | binds | no binding (only pancreas of diabetic db/db mice) |
| B5 | binds | no binding (only pancreas of diabetic db/db mice) |
| B6 | binds | no binding (only pancreas of diabetic db/db mice) |

These are yes or no findings as the source states them, for the method shown. Binding seen in cells or lysates may run through a third protein. These calls come from enrichment with a bait or labelling near it, and not all partners need be listed. For some of these results: No binding means not detected with the bait.
